According to PubChem BioAssay AID504834 (National Center for Advancing Translational Sciences (NCATS), 2011):
In all, about 320,000 compounds went through this assay and about 22,000 (6.9%) were called active. The inconclusive results got no clear call from the source; some entries with a clear call stand among them for comparison. Calls follow the shape of the dose curve; as a rule, active = well fitted inhibition curve with a large enough effect; inconclusive = small, poorly fitted or top-dose-only effect, or another doubt; inactive = no such curve, though single readings can be large or run the other way. Potencies beside an inconclusive call are fits to weak or partial responses and may not hold up.

Experiment: Primary qHTS for delayed death inhibitors of the malarial parasite plastid, 96 hour incubation
Details: P. falciparum luciferase reporter growth; series mostly up to 28.7 µM
How it was run: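 Infected RBCs, 2% Hct / 0.05% parasitemia final; luciferase-reporter P. falciparum; cpd 96 h, 37 C, 5% CO2; luciferase detection reagent; luminescence.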
Potency is read from the fitted curve at half-maximal effect.

Row | Compound | Potency
1 | CCCn1c2ccccc2c2cnn(CC(=O)NC3CCC(C)CC3)c(=O)c21 (stereo unspecified) | inactive
2 | Oc1ccccc1CNc1ncc(Br)cc1Br | active: 13.1 µM
3 | O=C(C1CCC1)N1CCN(Cc2ccccc2)CC1 | inconclusive: 13.1 µM [inhibitor, partial curve, poor fit]
4 | CCCCc1c(C)nc2ccc(Br)cc2c1SCCC#N | inconclusive: 1.65 µM [inhibitor, full curve, poor fit]
5 | C/C(=N/OC(=O)c1ccc(Cl)cc1Cl)c1oc(C)nc1C | inactive
6 | COc1cccc(N2CCN(Cc3ccsc3)CC2)c1 | inconclusive: 18.5 µM [inhibitor, single point]
7 | COC(=O)C1=C(C)NC(=O)NC1c1ccc2c(c1)OCO2 (stereo unspecified) | inconclusive: 18.5 µM [inhibitor, single point]
8 | O=C(NC1CCCCC1)C(c1ccc(F)cc1)N(Cc1ccc2c(c1)OCO2)C(=O)c1cnsn1 (stereo unspecified) | inactive
9 | CCC(=O)Nc1ccc(Oc2ccc(NC(=O)CC)c(NC(=O)CC)c2)cc1 | inconclusive: 18.5 µM [inhibitor, single point]
10 | COc1ccc2c(c1)c(C(=O)N/N=C/c1ccc(O)c(O)c1)c(C)n2C | inconclusive: 8.28 µM [inhibitor, partial curve, poor fit]
11 | CC(C)(C)c1cc2ncnc(N3CCCCC3)c2s1 | inconclusive: 4.15 µM [inhibitor, partial curve, poor fit]
12 | CC(=O)C1=NN(c2ccccc2)C(c2ccc3c(c2)OCO3)N1c1ccccc1 (stereo unspecified) | inconclusive: 10.4 µM [inhibitor, partial curve, poor fit]
13 | O=C(c1ccccc1)c1ccc(OCC(O)CN2CCN(Cc3ccccc3)CC2)cc1 (stereo unspecified) | inconclusive: 10.4 µM [inhibitor, single point]
14 | COc1cc2c(cc1NC(=O)c1cccc([N+](=O)[O-])c1C)oc1ccccc12 | inactive
15 | CC(C)(C)c1cc(C(c2cccnc2)N2CCN(CCO)CC2)cc(C(C)(C)C)c1O (stereo unspecified) | inactive
16 | Cc1ccc(-c2cc(C(=O)N3CCCCCC3)no2)cc1 | inconclusive: 18.5 µM [inhibitor, single point]
17 | Nc1cc2c(cc1Cl)N(Cc1ccccc1)C(=O)CO2 | inactive
18 | O=c1c2ccccc2sn1-c1ccc(S(=O)(=O)N2CCCC2)cc1 | inactive
19 | Cc1ccc(C(=O)NNC(=O)CCCN2C(=O)/C(=C/c3ccccc3Cl)SC2=S)cc1 | inconclusive: 10.4 µM [inhibitor, single point]
20 | O=S(=O)(c1ccccc1)N1CCN(c2cc(-c3ccccc3)nc3ncnn23)CC1 | inconclusive: 16.5 µM [inhibitor, single point]
21 | Cc1ccc(-n2ncc3c2CCCC3NC(=O)CCC2=NNC(=O)CC2)cc1C (stereo unspecified) | inconclusive: 18.5 µM [inhibitor, single point]
22 | CC1(C)CC(=O)C2=C(C1)c1c(ccc3ccccc13)NC2c1ccc(C(=O)O)cc1 (stereo unspecified) | inconclusive: 5.22 µM [inhibitor, partial curve, poor fit]
23 | CCCC1=NN(C(=O)Cc2ccc([N+](=O)[O-])cc2)C(O)(C(F)(F)F)C1 (stereo unspecified) | inconclusive: 18.5 µM [inhibitor, single point]
24 | CC(=O)OCC12COC3c4ccccc4OC(C)(CC1C)C3C2C (stereo unspecified) | inconclusive: 1.17 µM [inhibitor, full curve, poor fit]

Row | Compound | Potency
25 | COC(=O)C1=C(c2cccc(C#N)c2)C[C@@H]2CC[C@H]1N2C(=O)NCC1CC1 | inactive
26 | CC(=O)Nc1ccc(NC(=O)CSc2nc3c([nH]c4ccccc43)c(=O)n2-c2ccccc2F)cc1 | inconclusive: 11.7 µM [inhibitor, single point]
27 | CCCNC(=O)CSc1ccc(S(=O)(=O)N2CCCCC2)cn1 | inconclusive: 4.15 µM [inhibitor, single point]
28 | CCN1C(=O)c2ccc(C(=O)NCc3ccccc3)cc2C1=O | inactive
29 | Cc1cc(O)c2c3c(c(=O)oc2c1)CCC(C)C3 (stereo unspecified) | inconclusive: 16.5 µM [inhibitor, single point]
30 | O=C(Nc1nnc(CSCc2ccc(F)cc2)s1)c1ccc([N+](=O)[O-])cc1 | inactive
31 | Cc1occc1C(=O)NN=C1C2CC3CC(C2)CC1C3 | inactive
32 | O=C(c1ccco1)N1CCN(Cc2cccc([N+](=O)[O-])c2)CC1 | inactive
33 | CC1(C(=O)O)Cc2ccccc2C(=O)O1 (stereo unspecified) | inactive
34 | O=C(Nc1ccc(Br)cc1)C(c1ccccc1)c1ccccc1 | inactive
35 | CC1(C)CC2CC(C)(CN2/C=C2/CCCCC2=O)C1 (stereo unspecified) | inactive
36 | CCOC(=O)C1=C(C)Nc2sc(C(=O)c3ccc(F)cc3)c(N)c2C1c1ccc(C(=O)OC)cc1 (stereo unspecified) | active: 4.65 µM
37 | CCC1COCCS(=O)(=O)N1Cc1ccc(F)cc1 (stereo unspecified) | inactive
38 | CN(C)c1ccc(/C=C2/C(=O)NC(=O)N(Cc3ccco3)C2=O)cc1 | inconclusive: 13.1 µM [inhibitor, single point]
39 | Fc1cccc(F)c1/C=N/NC(=S)Nc1cccnc1 | inactive
40 | NS(=O)(=O)c1ccc(CCNC(=O)CSCC(=O)Nc2ccc(Cl)cc2)cc1 | inconclusive: 11.7 µM [inhibitor, single point]
41 | CC(C)CC(=O)NN(C)c1nc(-c2ccccc2)nnc1C(F)(F)F | inconclusive: 18.5 µM [inhibitor, single point]
42 | CCOc1ccc(NC(=O)Cn2cc(C(=O)C3CC3)c3ccccc32)cc1 | active: 5.86 µM
43 | O=C(O)/C=C/C(=O)NNC(=O)c1ccccc1Br | inactive
44 | Cc1ccc(/C=N/N(C)C2=NS(=O)(=O)c3ccccc32)o1 | inconclusive: 10.4 µM [inhibitor, partial curve, poor fit]
45 | CC(Sc1sc(=S)sc1SC(C)C(=O)O)C(=O)O (stereo unspecified) | inconclusive: 9.28 µM [inhibitor, partial curve, poor fit]
46 | Cc1ccc(S(=O)(=O)N(C)C)cc1NC(=O)/C=C/c1cccs1 | inconclusive: 0.131 µM [inhibitor, full curve, poor fit]
47 | CC1(C)CC(=O)C(N=Nc2ccc(S(=O)(=O)N3CCCCCC3)cc2)=C(O)C1 | inconclusive: 18.5 µM [inhibitor, single point]
48 | COc1ccccc1CCNC(=O)c1csc2c1CCCC2 | inconclusive: 9.28 µM [inhibitor, partial curve, poor fit]

Row | Compound | Potency
49 | COc1ccccc1/C=C/C=N/N1CCN(Cc2cccc3ccccc23)CC1 | inactive
50 | Cc1ccc(NC(=O)c2ccc(F)cc2)nc1 | active: 5.22 µM
51 | CCCCn1nc(NC(=O)CC(C)C)c2cc3cc(OC)ccc3nc21 | inconclusive: 7.38 µM [inhibitor, partial curve, poor fit]
52 | COc1ccc(C(=O)OC2C[C@H]3CC[C@H](C2)N3C)cc1OC (stereo partly specified) | inactive
53 | CCCCn1c(N)c(N(CC(C)C)C(=O)C2CCN(S(=O)(=O)c3ccccc3)CC2)c(=O)[nH]c1=O | inconclusive: 5.86 µM [inhibitor, partial curve, poor fit]
54 | Cc1ccc(N(CC(=O)NCC2CCCO2)S(=O)(=O)c2ccc(Cl)cc2)cc1C (stereo unspecified) | inconclusive: 5.22 µM [inhibitor, partial curve, poor fit]
55 | CCN(CC(=O)Nc1ccccc1OC)C(=O)c1ccccc1Sc1ccccc1C#N | inconclusive: 13.1 µM [inhibitor, single point]
56 | CCOc1ccc(C(=O)NCC(=O)OCc2cc([N+](=O)[O-])cc3c2OCOC3)cc1OCC | inactive
57 | CCN(CC)S(=O)(=O)c1cc(NC(=O)CNc2cccc(S(=O)(=O)N3CCCC3)c2)ccc1C | inconclusive: 10.4 µM [inhibitor, partial curve, poor fit]
58 | O=C(Nc1cc(F)cc(F)c1)c1ccc(NCCc2ccccc2)c([N+](=O)[O-])c1 | inconclusive: 18.5 µM [inhibitor, single point]
59 | CN(Cc1ccccc1)CC1CCCN(CCc2ccccc2F)C1 (stereo unspecified) | inconclusive: 5.22 µM [inhibitor, partial curve]
60 | O=C(Nn1cnnc1)c1ccccc1Cl | active: 8.28 µM
61 | CS(=O)(=O)c1ccc(SCC(=O)NC2CCS(=O)(=O)C2)c([N+](=O)[O-])c1 (stereo unspecified) | inactive
62 | O=C(COC(=O)C(O)c1ccccc1)c1ccc2c(c1)OCCO2 (stereo unspecified) | inactive
63 | CN1CCN(C(=O)c2cc3cc(F)ccc3[nH]2)CC1 | inactive
64 | CCCCNC(=O)CSc1nc2ccc(N3CCOCC3)cc2c(=O)n1CCc1ccccc1 | inconclusive: 18.5 µM [inhibitor, single point]
65 | CCOc1ccc(NC(=O)Cn2nnc(C(=O)NCCc3ccc(OC)c(OC)c3)c2N)cc1 | inconclusive: 11.7 µM [inhibitor, partial curve, poor fit]
66 | CCOc1cc2c3c(c1)C(C)CC(C)(C)N3C(=O)C2=O (stereo unspecified) | active: 0.828 µM
67 | COc1cc2c(cc1OC)C(c1ccc3c(c1)OCO3)CC(=O)N2 (stereo unspecified) | inconclusive: 18.5 µM [inhibitor, partial curve, poor fit]
68 | CCn1c(SCc2ccccc2)nc2c1c(=O)[nH]c(=O)n2C | inactive
69 | COc1ccc(S(=O)(=O)Nc2ccccc2-c2nnn(CC(=O)Nc3ccccc3OC)n2)cc1 | inconclusive: 18.5 µM [inhibitor, single point]
70 | O=C(Nc1ccc(O)c2c(=O)cc(-c3ccccc3Cl)oc12)c1ccc(Cl)cc1Cl | inconclusive: 18.5 µM [inhibitor, single point]
71 | CCn1c(SCC(=O)Nc2ccc(C(=O)OC)cc2)nc2cccnc21 | inconclusive: 11.7 µM [inhibitor, partial curve, poor fit]

As entered above.
Under Potency, Cc1ccc(N(CC(=O)NCC2CCCO2)S(=O)(=O)c2ccc(Cl)cc2)cc1C (stereo unspecified) has inconclusive: 5.22 µM [inhibitor, partial curve, poor fit]
Under Potency, COc1ccccc1/C=C/C=N/N1CCN(Cc2cccc3ccccc23)CC1 has inactive
Under Potency, CCN(CC)S(=O)(=O)c1cc(NC(=O)CNc2cccc(S(=O)(=O)N3CCCC3)c2)ccc1C has inconclusive: 10.4 µM [inhibitor, partial curve, poor fit]
Under Potency, O=C(Nc1cc(F)cc(F)c1)c1ccc(NCCc2ccccc2)c([N+](=O)[O-])c1 has inconclusive: 18.5 µM [inhibitor, single point]
